Single values of this set are uncertain.

Here are results for 9 variants from the supplement of paper PMC10382679.

To fix the notation:
B1: Rpb7; numbered along this chain (parent)
chain: MFFIKDLSLNITLHPSFFGPRMKQYLKTKLLEEVEGSCTGKFGYILCVLDYDNIDIQRGRILPTDGSAEFNVKYRAVVFKPFKGEVVDGTVVSCSQHGFEVQVGPMKVFVTKHLMPQDLTFNAGSNPPSYQSSEDVITIKSRIRVKIEGCISQVSSIHAIGSIKEDYLGAI

In data set [1] the parent is B1. Briefly: log2 fold change of mutant abundance, UV-irradiated vs unirradiated; higher = more UV resistant (enriched after UV). As to conditions: with Saccharomyces cerevisiae rad7Δ rad26Δ; UV dose (J/m2): 10; genetic background: rad7Δ rad26Δ rpb7Δ + plasmid RPB7 library; outgrowth: 10 cell divisions.
Variants of B1 are the subject of data set [2]. The data set is described as follows: NOISeq theta enrichment statistic, UV-irradiated vs unirradiated (dimensionless); higher = more UV resistant (enriched after UV). As to conditions: with Saccharomyces cerevisiae rad7Δ rad26Δ; UV dose (J/m2): 10; genetic background: rad7Δ rad26Δ rpb7Δ + plasmid RPB7 library; outgrowth: 10 cell divisions.

As for MFFIKDLSLNITLHPSFFGPRMKQYLKTKLLEEVEGSFTGKFGYILCVLDYDNIDIQRGRILPTDGSAEFNVKYRAVVFKPFKGEVVDGTVVSCSQHGFEVQVGPMKVFVTKHLMPQDLTFNAGSNPPSYQSSEDVITIKSRIRVKIEGCISQVSSIHAIGSIKEDYLGAI [C38F], in data set [1], the “log2 fold change of mutant abundance” value is -0.096. Moreover, in data set [2], the “NOISeq theta enrichment statistic” value is -0.145.
As for MFFIIDLSLNITLHPSFFGPRMKQYLKTKLLEEVEGSCTGKFGYILCVLDYDNIDIQRGRILPTDGSAEFNVKYRAVVFKPFKGEVVDGTVVSCSQHGFEVQVGPMKVFVTKHLMPQDLTFNAGSNPPSYQSSEDVITIKSRIRVKIEGCISQVSSIHAIGSIKEDYLGAI [K5I], in data set [1], the “log2 fold change of mutant abundance” value is 0.0267. Moreover, the “NOISeq theta enrichment statistic” value in data set [2] was 0.0814.
Regarding MFFIKDLSLNITLHPSFFGPRMKQYLKTKLLEEVEGSCTGKFGYILCVLDYDNIDIQRGRILPTDGSAEFNVKYRLVVFKPFKGEVVDGTVVSCSQHGFEVQVGPMKVFVTKHLMPQDLTFNAGSNPPSYQSSEDVITIKSRIRVKIEGCISQVSSIHAIGSIKEDYLGAI [A76L], the “log2 fold change of mutant abundance” value in data set [1] amounted to 0.163. For the same variant, the “NOISeq theta enrichment statistic” value in data set [2] was 0.2.
For MFFIKDLSLNITLHPSFFGPRMKQYLKTKLLEEVEGSCTGKFGYILCVLDYDNIDIQRGRILPTDGSAEFNVKYRAVVFKPFKGEVVDGTVVWCSQHGFEVQVGPMKVFVTKHLMPQDLTFNAGSNPPSYQSSEDVITIKSRIRVKIEGCISQVSSIHAIGSIKEDYLGAI [S93W] the same measures were -0.0972 and -0.0858.
On to MFFIKDLSLNITLHPSFFGPRMKQYLKTKLLEEVEGSCTGKFGYILCVLDYDNIDIQRGRILPTDGSAEFNVKYRAVVFKPFKGEVVDGTVVSCSQHGFEVQVGPMKVFVTKHLMPQDLTFNAGSNPPSYQSSEDVITIKHRIRVKIEGCISQVSSIHAIGSIKEDYLGAI [S141H], for which the “log2 fold change of mutant abundance” value in data set [1] turned out to be 1.93. Also, the “NOISeq theta enrichment statistic” value in data set [2] is 0.727.
As to MFFIKDLSLNITLHPSFFGPRMKQYLKTKLLEEVEGSCTGKFGYILCVLDYDNIDIQRGRILPTDGSAEFNVKYRAVVFKPFKGEVVDGTVVSCSQHGFEVQVGPMKVFVTKHLMPQDLTFNAGSNPPSYQSSEMVITIKSRIRVKIEGCISQVSSIHAIGSIKEDYLGAI [D135M], the “log2 fold change of mutant abundance” value in data set [1] was -1.09. The “NOISeq theta enrichment statistic” value in data set [2] is -0.525.
Consider MFFIKDLSLNITLHPSFFGPRMKQYLKTKLLEEVEGSCTGKFGYILCVLDYDNIDIQRGRILPTDGSAEFNVKYRAVVFKPFKGEVVDGTVVSCSQHGFEVQVGPMKVFVTKHLMPQDLTFNAGSNPPSYQSSEDVITIKSRIRVKIEGCISQVSSIHANGSIKEDYLGAI [I160N], for which, in data set [1], the “log2 fold change of mutant abundance” value was determined as 0.302. Further, the “NOISeq theta enrichment statistic” value in data set [2] is 0.551.
For MFFIKDLSLNITLHPSFFGPRMKQYLKTKLLEEVEGSCTGKFGYILCVLDYDNIDIQRGRILPTDGSAEFNVKYRAVVFKPFKGEVVDGTVVSCSQHGFEVQVGPMKVFVTKHLMPQDLTFNAGSNPPSYQSSEDVITIKSRIRVKIEGCISQVISIHAIGSIKEDYLGAI [S155I] the same measures were 0.0328 and 0.0476.
For MFFIKDLSLNITLHPSFFGPRMKQYLKTKLLEEVEGSCTGKFGYILCVLDYDNIDIQRGRILPTDGSAEFNVKYRAVVFKPFKGEVVDGTVVSCSQHGFEVQVGPMKVFVTKHLMPQDLTFNAGSNPPSVQSSEDVITIKSRIRVKIEGCISQVSSIHAIGSIKEDYLGAI [Y130V] the same measures were -0.0695 and -0.0499.
